Changes are numbered by the printed parent chain. Results are given in words; binding and its absence hold for the method and conditions named. In cells and extracts the contact can be indirect. Some results given as binding are weak or reduced against the parent protein; the word gives no strength. Sequences can lack the tags named with a protein.
Experiments:
Assay in all cases: co-IP
[1] = biological target: T1, 3F6H-ZTL G46A (full-length ZTL G46A with 3xFLAG-6xHis tag) (UniProt Q94BT6)
T1 sequence: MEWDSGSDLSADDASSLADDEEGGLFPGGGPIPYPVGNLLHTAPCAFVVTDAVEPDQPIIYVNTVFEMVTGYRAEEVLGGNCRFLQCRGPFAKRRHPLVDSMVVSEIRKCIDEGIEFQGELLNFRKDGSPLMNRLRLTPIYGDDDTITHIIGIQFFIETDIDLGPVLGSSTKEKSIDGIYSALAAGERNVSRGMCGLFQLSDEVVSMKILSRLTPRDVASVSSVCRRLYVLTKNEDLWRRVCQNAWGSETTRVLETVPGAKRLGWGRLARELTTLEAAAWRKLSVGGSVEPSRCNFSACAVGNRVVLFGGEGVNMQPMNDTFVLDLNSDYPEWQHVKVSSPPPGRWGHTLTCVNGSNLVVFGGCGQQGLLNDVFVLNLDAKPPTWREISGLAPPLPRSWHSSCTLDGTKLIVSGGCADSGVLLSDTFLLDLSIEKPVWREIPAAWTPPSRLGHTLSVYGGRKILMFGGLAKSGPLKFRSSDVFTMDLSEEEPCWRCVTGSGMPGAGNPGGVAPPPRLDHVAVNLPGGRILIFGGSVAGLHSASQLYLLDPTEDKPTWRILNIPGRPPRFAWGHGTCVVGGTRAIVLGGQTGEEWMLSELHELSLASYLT

[2] = biological target: T2, 3F6H-ZTL Q154L (full-length ZTL Q154L with 3xFLAG-6xHis tag) (UniProt Q94BT6)
T2 sequence: T1 sequence with A46G, Q154L

[3] = biological target: T3, 3F6H-ZTL G46S (full-length ZTL G46S with 3xFLAG-6xHis tag) (UniProt Q94BT6)
T3 sequence: T1 sequence with A46S

Measured: binding

B1: HA-GI (HA-tagged GIGANTEA) (protein, UniProt Q9SQI2 1-1173)
chain: MASSSSSERWIDGLQFSSLLWPPPRDPQQHKDQVVAYVEYFGQFTSEQFPDDIAELVRHQYPSTEKRLLDDVLAMFVLHHPEHGHAVILPIISCLIDGSLVYSKEAHPFASFISLVCPSSENDYSEQWALACGEILRILTHYNRPIYKTEQQNGDTERNCLSKATTSGSPTSEPKAGSPTQHERKPLRPLSPWISDILLAAPLGIRSDYFRWCSGVMGKYAAGELKPPTIASRGSGKHPQLMPSTPRWAVANGAGVILSVCDDEVARYETATLTAVAVPALLLPPPTTSLDEHLVAGLPALEPYARLFHRYYAIATPSATQRLLLGLLEAPPSWAPDALDAAVQLVELLRAAEDYASGVRLPRNWMHLHFLRAIGIAMSMRAGVAADAAAALLFRILSQPALLFPPLSQVEGVEIQHAPIGGYSSNYRKQIEVPAAEATIEATAQGIASMLCAHGPEVEWRICTIWEAAYGLIPLNSSAVDLPEIIVATPLQPPILSWNLYIPLLKVLEYLPRGSPSEACLMKIFVATVETILSRTFPPESSRELTRKARSSFTTRSATKNLAMSELRAMVHALFLESCAGVELASRLLFVVLTVCVSHEAQSSGSKRPRSEYASTTENIEANQPVSNNQTANRKSRNVKGQGPVAAFDSYVLAAVCALACEVQLYPMISGGGNFSNSAVAGTITKPVKINGSSKEYGAGIDSAISHTRRILAILEALFSLKPSSVGTPWSYSSSEIVAAAMVAAHISELFRRSKALTHALSGLMRCKWDKEIHKRASSLYNLIDVHSKVVASIVDKAEPLEAYLKNTPVQKDSVTCLNWKQENTCASTTCFDTAVTSASRTEMNPRGNHKYARHSDEGSGRPSEKGIKDFLLDASDLANFLTADRLAGFYCGTQKLLRSVLAEKPELSFSVVSLLWHKLIAAPEIQPTAESTSAQQGWRQVVDALCNVVSATPAKAAAAVVLQAERELQPWIAKDDEEGQKMWKINQRIVKVLVELMRNHDRPESLVILASASDLLLRATDGMLVDGEACTLPQLELLEATARAIQPVLAWGPSGLAVVDGLSNLLKCRLPATIRCLSHPSAHVRALSTSVLRDIMNQSSIPIKVTPKLPTTEKNGMNSPSYRFFNAASIDWKADIQNCLNWEAHSLLSTTMPTQFLDTAARELGCTISLSQ
binds: all assays above
